Results deposited as PubChem BioAssay AID686943 (Drosophila RNAi Screening Center, 2013)

Screen: 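Knockdowns that increase or decrease active ERK after insulin receptor stimulation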 (primary screen)
System: Drosophila S2R+ haemocyte-like cells expressing YFP-tagged ERK (Rolled)
Reagents: long dsRNA against Drosophila genes
Treatment: insulin stimulation versus unstimulated cells; dose and duration not given
Read-out: 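Per-plate z-scores of phospho-ERK immunostaining normalised to YFP-tagged ERK, measured with and without insulin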
Direction: replicate 1, z-score of dpERK with insulin and replicate 2, z-score of dpERK with insulin: higher = more active ERK per ERK-YFP after insulin
The screen tested about 23,000 reagents; below is an unselected part of those that have a named target and a result. 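Extra replicates exist only for a retested subset of genes; insulin dose and duration not given; both raised and lowered dpERK matter.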 Further read-outs or replicates are left out here. Reagent sequences are not shown. Not given: the amount of reagent, the time to read-out.

Silencing of CG16710 [DRSC15136] gave: replicate 1, z-score of dpERK with insulin 0.98; replicate 2, z-score of dpERK with insulin 0.
Against lncRNA:iab4 [DRSC22331], the values are replicate 1, z-score of dpERK with insulin 0.41; replicate 2, z-score of dpERK with insulin 1.05.
After knock-down of CG34283 [DRSC13313], the screen gave replicate 1, z-score of dpERK with insulin -0.17; replicate 2, z-score of dpERK with insulin 1.
Against Uvrag [DRSC02932] the deposit lists replicate 1, z-score of dpERK with insulin 0.34; replicate 2, z-score of dpERK with insulin -0.3.
For CG9396 [DRSC16487], the entry reads replicate 1, z-score of dpERK with insulin -0.2; replicate 2, z-score of dpERK with insulin -0.78.
With knock-down of Nmdar1 [DRSC12071], the record shows replicate 1, z-score of dpERK with insulin -0.94; replicate 2, z-score of dpERK with insulin 0.37.
Nmdar1 [DRSC12356] gave replicate 1, z-score of dpERK with insulin 0.79; replicate 2, z-score of dpERK with insulin 1.27.
CG13203 [DRSC06327] scored replicate 1, z-score of dpERK with insulin -0.19; replicate 2, z-score of dpERK with insulin 0.67.

Single entries from the entries so far.
For “replicate 1, z-score of dpERK with insulin”, CG9396 [DRSC16487] shows -0.2
Entry of CG16710 [DRSC15136] in “replicate 2, z-score of dpERK with insulin”: 0

The listing continues.
After knock-down of slmb [DRSC17056], the screen gave replicate 1, z-score of dpERK with insulin 0.13; replicate 2, z-score of dpERK with insulin 0.67.
CG42724 [DRSC12567] gave replicate 1, z-score of dpERK with insulin 0.37; replicate 2, z-score of dpERK with insulin -0.21.
Against CG42724 [DRSC22275] the deposit lists replicate 1, z-score of dpERK with insulin 2.14; replicate 2, z-score of dpERK with insulin 1.73.
Depletion of Mgat4b [DRSC10256] resulted in: replicate 1, z-score of dpERK with insulin -0.28; replicate 2, z-score of dpERK with insulin -0.02.
Depletion of MsR2 [DRSC08336] resulted in: replicate 1, z-score of dpERK with insulin 0.83; replicate 2, z-score of dpERK with insulin 1.11.
Against MsR2 [DRSC08337], the values are replicate 1, z-score of dpERK with insulin 1.19; replicate 2, z-score of dpERK with insulin 0.37.
Depletion of MsR2 [DRSC22440] resulted in: replicate 1, z-score of dpERK with insulin 0.08; replicate 2, z-score of dpERK with insulin 0.64.
Against CG42597 [DRSC03681] the deposit lists replicate 1, z-score of dpERK with insulin -0.44; replicate 2, z-score of dpERK with insulin 0.06.
After knock-down of lncRNA:CR41601 [DRSC22158], the record shows replicate 1, z-score of dpERK with insulin -0.04; replicate 2, z-score of dpERK with insulin 0.08.
After knock-down of mus304 [DRSC11372], the screen gave replicate 1, z-score of dpERK with insulin -0.81; replicate 2, z-score of dpERK with insulin -0.03.
After knock-down of hppy [DRSC07014], the screen gave replicate 1, z-score of dpERK with insulin 1.01; replicate 2, z-score of dpERK with insulin 0.61.
hppy [DRSC07015] scored replicate 1, z-score of dpERK with insulin 0.07; replicate 2, z-score of dpERK with insulin -0.06.
Depletion of hppy [DRSC07016] came out at: replicate 1, z-score of dpERK with insulin -0.39; replicate 2, z-score of dpERK with insulin 0.44.
